{
  "source": "PubChem BioAssay AID330",
  "about": "(DTP/NCI, 2004)",
  "system": "P388 leukemia ip, CD2F1 mice, survival T/C",
  "experiment": "NCI In Vivo Anticancer Drug Screen. Data for tumor model P388 Leukemia (intraperitoneal) in CD2F1 (CDF1) mice",
  "conditions": "T/C endpoint: median survival time, schedule: Q01DX005 (ip), higher T/C = longer survival",
  "key": {"[1]": {"conditions": "dose: 50.0 mg/kg/injection, vehicle: Klucel (hydroxypropylcellulose) (HPC)"}, "[2]": {"conditions": "dose: 50.0 mg/kg/injection, vehicle: saline"}},
  "note": "The list shows only some results of the screen, not a fair sample: it is rich in T/C values a quarter to a half above the control, in often repeated tests (any T/C) and in doses without a T/C. Other doses and runs of a compound stand elsewhere. T/C: endpoint of the treated group in % of that of the vehicle group. Some entries give survivors of the animals treated and no T/C: the source holds a T/C of zero for them, seemingly a mark for toxic or unscored doses. Survivors were counted at the toxicity check, usually on the fifth day, unless a day is given; later deaths do not show. Schedules are NCI's codes, read here as Q, the interval in days (D) or hours (H), X, the number of doses. Some entries hold several experiments; their values stand side by side, smallest first. Where survival is the endpoint, this PubChem deposit counts one and a half times the control or more as active, and values a quarter to a half above the control carry no call in these data; other NCI protocols may use other cut-offs.",
  "data": [
    {"smiles": "CC(C)C(=O)[O][Bi]([c]1ccccc1)[c]1ccccc1", "values": [
      {"measurement": "T/C", "setting": "dose: 12.5 mg/kg/injection, vehicle: Klucel (hydroxypropylcellulose) (HPC)", "value": "140 % of control"},
      {"measurement": "survivor count", "setting": "dose: 25.0 mg/kg/injection, vehicle: Klucel (hydroxypropylcellulose) (HPC)", "value": "0 of 6"},
      {"measurement": "T/C", "setting": "[1]", "value": "119 and 156 % of control"},
      {"measurement": "survivor count", "setting": "[1]", "value": "0 of 6 and 3 of 6"},
      {"measurement": "survivor count", "setting": "dose: 100.0 mg/kg/injection, vehicle: Klucel (hydroxypropylcellulose) (HPC)", "value": "0 of 6"},
      {"measurement": "survivor count", "setting": "dose: 200.0 mg/kg/injection, vehicle: Klucel (hydroxypropylcellulose) (HPC)", "value": "0 of 6"}
    ]},
    {"smiles": "CC(C)=C(Nc1ccccc1)NC(C)C", "values": [
      {"measurement": "T/C", "setting": "[2]", "value": "128 % of control"},
      {"measurement": "survivor count", "setting": "[2]", "value": "0 of 6"},
      {"measurement": "survivor count", "setting": "dose: 100.0 mg/kg/injection, vehicle: saline", "value": "0 of 5"},
      {"measurement": "survivor count", "setting": "dose: 200.0 mg/kg/injection, vehicle: saline", "value": "0 of 5"}
    ]}
  ]
}
